Out of some 330,000 compounds screened, about 7,700 (2.3%) were called active. Inconclusive results, whose numbers are uncertain, are shown with a selection of clear calls. Calls come from the whole dose curve; as a rule, active = well fitted inhibition curve with a large enough effect; inconclusive = small, poorly fitted or top-dose-only effect, or effect the other way; inactive = flat fitted curve, though single readings scatter. A potency beside an inconclusive call is a rough fit, not a confirmed value.
Test: qHTS screen for small molecules that inhibit ELG1-dependent DNA repair in human embryonic kidney (HEK293T) cells expressing luciferase-tagged ELG1; note: nearly all actives have a fitted effect of over 55% in size
Conditions: HEK293T ELG1-luciferase reporter, luminescence, 16 h, DNA damage induced by 5-fluorouridine; activity change, negative = inhibition: at 46.1 µM (top of the series)
Method in brief: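 Overnight (16 hr) co-exposure of 2,000 cells/well to 5-fluorouridine and compound at 37 °C preceded detection. Luciferase was quantified via ONE-Glo luminescence; loss of signal denotes inhibition.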
% is set by controls: 0 for no effect and ±100 for the full control effect; potency is the fitted concentration of half-maximal effect.

For `C=CCn1c(C)nnc1SCC(=O)Nc1nccs1`, which “activity change, negative = inhibition” value is on record?
The value was inactive: -0.97%.

With `O=C1C=C(Nc2ccc(F)cc2)c2ccccc2C1=O` as the molecule, how does the Potency read?
The Potency was inconclusive: 18.3 µM [inhibitor, single point].

Which Potency does the source give for `Cc1cc(/C=C2\C(=N)N3N=CSC3=NC2=O)c(C)n1Cc1ccccc1` here?
Its Potency is inconclusive: 6.51 µM [activator, full curve].

Which Potency does the source give for `O=C(NNC(=O)C1CCN(Cc2ccc(F)cc2Cl)CC1)Nc1ccc([N+](=O)[O-])cc1` here?
Its Potency is inconclusive: 32.6 µM [inhibitor, partial curve, poor fit].

For `Cn1c(SCC(=O)N2CCN(c3ccccc3)CC2)nnc1-c1ccccc1`, which Potency is on record?
The Potency was inconclusive: 20.6 µM [inhibitor, single point].

For `CN(C)S(=O)(=O)c1ccc(C(=O)Nc2nnc(-c3ccco3)o2)cc1`, which Potency is on record?
Its Potency is inconclusive: 29.1 µM [inhibitor, single point].

Which Potency does the source give for `CC(=O)Nc1ccc(NC(=O)COC(=O)[C@@H]2CCCN2C(=O)c2cccs2)cc1` here?
Its Potency is inconclusive: 20.6 µM [activator, partial curve, poor fit].

For `CN(C)/C=C(\C#N)c1nc2ccccc2[nH]1`, which Potency is on record?
The Potency was inconclusive: 11.6 µM [activator, partial curve, poor fit].

Which Potency does the source give for `Cc1ccc(S(=O)(=O)N2CCN(C(=S)NCCc3ccccc3)CC2)cc1` here?
Its Potency is inconclusive: 29.1 µM [inhibitor, single point].

For `NS(=O)(=O)c1ccc(NC(=O)/C=C/c2ccc3c(c2)OCO3)cc1`, which Potency is on record?
The Potency was inconclusive: 3.26 µM [inhibitor, partial curve, poor fit].

With `COc1ccc(OCc2nnc(SCC(=O)Nc3cccc(Cl)c3)o2)cc1` as the molecule, how does the “activity change, negative = inhibition” value read?
Its value is inactive: -7.12%.

Which Potency does the source give for `CC1CN(S(=O)(=O)c2cccc(C(=O)OC(C)C(=O)NC3CCCCC3C)c2)CC(C)O1` (centres undefined) here?
The Potency was inconclusive: 29.1 µM [inhibitor, single point].

Which Potency does the source give for `COc1cc(C2N=C(c3ccccc3)NO2)cc(Br)c1O` (centres undefined) here?
Its Potency is inconclusive: 14.1 µM [activator, single point].

Which “activity change, negative = inhibition” value does the source give for `Cc1ccc(S(=O)(=O)N2CCOCC2)cc1C(=O)OC(C)C(=O)c1ccccc1` (centres undefined) here?
Its value is inactive: 1.07%.

Which Potency does the source give for `Cc1ccc(/C=N/Nc2ncc(Cl)cc2Cl)s1` here?
The Potency was inconclusive: 2.91 µM [activator, partial curve].

Which Potency does the source give for `COC(=O)/C(=C\C=C\c1ccccc1)NC(=O)c1ccccc1` here?
Its Potency is inconclusive: 25.9 µM [inhibitor, single point].

Which Potency does the source give for `CC(C)=CC(=O)Nc1nnc(-c2ccccc2C)s1` here?
Its Potency is inconclusive: 23.1 µM [activator, single point].

With `CC(=O)Nc1ccc(/C=C2\Sc3ccccc3C2=O)cc1` as the molecule, how does the “activity change, negative = inhibition” value read?
Its value is inactive: 17.5%.

Which Potency does the source give for `COC(=O)c1oc2ccccc2c1NC(=O)c1ccccc1O` here?
The Potency was inconclusive: 11.6 µM [inhibitor, partial curve].

Which Potency does the source give for `O=C(Cc1c(F)cccc1Cl)Nc1ncc([N+](=O)[O-])s1` here?
The Potency was inconclusive: 16.4 µM [inhibitor, single point].

For `CC(NC(=O)c1ccccc1)C(=O)NC1CCCc2ccccc21` (centres undefined), which “activity change, negative = inhibition” value is on record?
Its value is inactive: -7.17%.

Which Potency does the source give for `CCOc1ccc(S(=O)(=O)N2CCN(C(=O)c3oc4ccc(OC)cc4c3C)CC2)cc1` here?
Its Potency is active: 20.6 µM.

For `CCc1ccc(N(C)S(=O)(=O)c2ccc3[nH]cc(C(=O)NCCN4CCOCC4)c(=O)c3c2)cc1`, which Potency is on record?
Its Potency is inconclusive: 29.1 µM [inhibitor, partial curve, poor fit].

With `Cc1cc(C)c(SCCc2ccncc2)c(C)c1` as the molecule, how does the Potency read?
Its Potency is inconclusive: 7.3 µM [inhibitor, partial curve, poor fit].

With `COc1ccc(-n2c(SCC(=O)Nc3ccc(NC(C)=O)cc3)nc3ccccc3c2=O)cc1` as the molecule, how does the Potency read?
Its Potency is inconclusive: 20.6 µM [inhibitor, single point].

With `COc1ccc(CC(=O)Nc2nc3ccc(F)cc3s2)cc1S(=O)(=O)N1CCOCC1` as the molecule, how does the Potency read?
Its Potency is inconclusive: 29.1 µM [inhibitor, single point].

With `COc1ccccc1-c1nnc(SCC(=O)Nc2ccccc2)o1` as the molecule, how does the Potency read?
Its Potency is inconclusive: 29.1 µM [activator, single point].

With `COC(=O)c1cnn(-c2ccccc2)c1/C=N/NC(=S)Nc1ccc(Cl)cc1` as the molecule, how does the “activity change, negative = inhibition” value read?
Its value is inactive: -4.16%.

For `COc1ccc(-c2noc(CN(C)C(=O)c3ccoc3C)n2)cc1`, which “activity change, negative = inhibition” value is on record?
Its value is inactive: -6.15%.

Which Potency does the source give for `CCOC(=O)N1CCC(NCCNC(=O)c2cccs2)CC1` here?
The Potency was inconclusive: 29.1 µM [activator, single point].

With `O=c1n(Cc2ccc(Cl)cc2)c2sc3c(c2c2ncnn12)CCCC3` as the molecule, how does the Potency read?
The Potency was inconclusive: 18.4 µM [inhibitor, single point].

With `Cc1ccc(S(=O)(=O)N2CCN(C(=O)CC(C)n3cncn3)CC2)cc1C` (centres undefined) as the molecule, how does the “activity change, negative = inhibition” value read?
Its value is inactive: 12.3%.

With `CCOC(=O)COc1ccc(Cl)cc1C1NC(=O)NC(C)=C1C(C)=O` (centres undefined) as the molecule, how does the Potency read?
The Potency was inconclusive: 29.1 µM [activator, partial curve, poor fit].

For `COc1ccc(C(=O)N2CCCC(c3nc(-c4ccc(OC)c(OC)c4)no3)C2)c(OC)c1` (centres undefined), which Potency is on record?
Its Potency is inconclusive: 1.64 µM [inhibitor, partial curve, poor fit].

With `COCCCNC(=O)c1cc(OC)c(OC)c(OC)c1` as the molecule, how does the Potency read?
Its Potency is inconclusive: 20.6 µM [activator, partial curve, poor fit].

Which Potency does the source give for `Nc1c(C(=O)NCc2ccco2)c2nc3ccccc3nc2n1CCc1ccc(F)cc1` here?
Its Potency is inconclusive: 20.6 µM [inhibitor, single point].

For `CCOC(=O)c1c(C)sc2c1N(C(=O)CN1CCOCC1)c1cc(Cl)ccc1S2`, which Potency is on record?
The Potency was inconclusive: 29.1 µM [inhibitor, partial curve, poor fit].

For `Cn1c(=NC(=O)C2CC2)sc2cccc(F)c21`, which Potency is on record?
Its Potency is inconclusive: 20.6 µM [activator, partial curve].

For `COCCN(Cc1cc2cc3c(cc2nc1Cl)OCO3)C(=O)c1cccc(C)c1`, which Potency is on record?
The Potency was inconclusive: 16.4 µM [inhibitor, partial curve, poor fit].

Which “activity change, negative = inhibition” value does the source give for `O=C(CSc1nc2ccc(Cl)cc2[nH]1)Nc1ccc2c(c1)CCC2` here?
Its value is inactive: -1.81%.

Which “activity change, negative = inhibition” value does the source give for `CN1CCCC2(CCCN(Cc3nc(Cc4cccc(C(F)(F)F)c4)no3)C2)C1` (centres undefined) here?
The value was inactive: 1.87%.

For `COC(=O)c1ccc(N2CCN(c3ccccc3)CC2)c(NC(=O)C2CC2)c1`, which Potency is on record?
Its Potency is inconclusive: 15.8 µM [inhibitor, single point].

Which “activity change, negative = inhibition” value does the source give for `C=CCn1c2ccccc2c2nnc(SCCN3CCOCC3)nc21` here?
The value was inactive: -20.8%.

Which “activity change, negative = inhibition” value does the source give for `O=C(c1cccc(Cl)c1)N1CCCc2ccccc21` here?
The value was inactive: -18.6%.

Which Potency does the source give for `O=C(c1cc(-c2ccco2)on1)N1CCCc2ccccc21` here?
Its Potency is inconclusive: 23.1 µM [activator, single point].

With `O=c1cc(-c2ccccc2)nc2nc(-c3ccccc3)[nH]n12` as the molecule, how does the Potency read?
The Potency was inconclusive: 10.3 µM [activator, partial curve].

Which “activity change, negative = inhibition” value does the source give for `CS(=O)(=O)N(CC(=O)Nc1ccc(Br)cc1)C1CCCCC1` here?
The value was inactive: -11.1%.

For `COc1ccc(C)cc1N(C(=O)c1snc(C(N)=O)c1N)C(C(=O)NC1CCCC1)c1ccc(F)cc1` (centres undefined), which “activity change, negative = inhibition” value is on record?
Its value is inactive: -18.4%.

With `O=S(=O)(c1ccc(Br)s1)N1CCN(CCOc2ccccc2)CC1` as the molecule, how does the Potency read?
The Potency was inconclusive: 14.6 µM [inhibitor, partial curve].

For `CC(C)(C)OC(=O)NCc1ccc(NC(=O)c2nc[nH]c2C(=O)NCCNC(=O)c2[nH]cnc2C(=O)Nc2ccc(CNC(=O)OC(C)(C)C)cc2)cc1`, which Potency is on record?
Its Potency is active: 1.3 µM.

With `O=C(c1ccc2c(c1)OCO2)N1CCNc2ccccc2C1` as the molecule, how does the Potency read?
Its Potency is inconclusive: 23.1 µM [activator, partial curve, poor fit].

With `CN(C)C(=O)COC(=O)c1ccccc1Nc1ccc(SC(F)F)cc1` as the molecule, how does the Potency read?
Its Potency is inconclusive: 20.6 µM [activator, partial curve].

Which Potency does the source give for `COC(=O)c1c(NC(=O)C(C)(C)C)sc2c1C(C(=O)OC)CC2` (centres undefined) here?
The Potency was inconclusive: 35.5 µM [inhibitor, single point].

With `CNC(=O)/C(C#N)=C/c1c(N(Cc2ccccc2)Cc2ccccc2)nc2c(C)cccn2c1=O` as the molecule, how does the Potency read?
Its Potency is active: 23.1 µM.

With `CCCn1c(/N=C/c2ccc3c(c2)OCO3)nc2ccccc21` as the molecule, how does the Potency read?
The Potency was inconclusive: 13 µM [inhibitor, partial curve].

Which Potency does the source give for `CCOc1ccc(C(=O)NC(C(=O)NCC2CCCO2)C(C)C)cc1` (centres undefined) here?
The Potency was active: 23.1 µM.

With `Cc1cccc(N=C2NC(=O)/C(=C/C=C/c3ccco3)S2)c1` as the molecule, how does the “activity change, negative = inhibition” value read?
Its value is inactive: -25.3%.

Which “activity change, negative = inhibition” value does the source give for `COc1cccc(CCC(=O)N(C)C2CCCN(Cc3ccccc3F)C2)c1` (centres undefined) here?
Its value is inactive: -6.52%.

For `CCCCOc1ccc(N2CC(C(=O)NCc3ccco3)CC2=O)cc1` (centres undefined), which Potency is on record?
The Potency was inconclusive: 18.3 µM [activator, single point].

For `CCN1C(=O)[C@H]2[C@@H](c3ccc(-c4ccc(OC)cc4)cc3)N[C@@](C)(C(=O)OC)[C@H]2C1=O`, which “activity change, negative = inhibition” value is on record?
Its value is inactive: 2.17%.

Which “activity change, negative = inhibition” value does the source give for `CN(Cc1ccccc1)C(=S)NC(=O)c1cccs1` here?
The value was inactive: -8.24%.

With `CC12COC3(C(=O)Nc4ccc(Cl)cc4)CC1CCC32C` (centres undefined) as the molecule, how does the Potency read?
Its Potency is inconclusive: 2.91 µM [inhibitor, partial curve, poor fit].

Which “activity change, negative = inhibition” value does the source give for `COc1ccc(N2C(=O)[C@@H]3[C@H](C2=O)[C@H]2C=CC=NN2[C@@H]3C(=O)Nc2ccc(Cl)cc2)cc1` here?
Its value is inactive: 2.91%.

Which Potency does the source give for `CCOc1ccc(/C=C2/Sc3ccc(C(=O)N4CCOCC4)cc3N(C)C2=O)cc1OC` here?
Its Potency is active: 8.2 µM.

For `Cc1ccc(C(C(=O)Nc2ccc(C(C)C)cc2)N(C)C(=O)c2ccc(=O)[nH]c2)cc1` (centres undefined), which Potency is on record?
The Potency was inconclusive: 23.1 µM [inhibitor, single point].

Which Potency does the source give for `COc1cc(/C=N/NC(=O)CCn2c3ccccc3c3ccccc32)cc(OC)c1OC` here?
The Potency was active: 18.4 µM.

For `Cc1cccc(NC(=O)c2ccccc2Br)n1`, which Potency is on record?
The Potency was inconclusive: 18.4 µM [activator, single point].

Which Potency does the source give for `COc1ccc(F)cc1CN1CCN(CC(=O)Nc2ccccc2C(=O)NC2CC2)CC1` here?
Its Potency is active: 10 µM.

Which Potency does the source give for `O=C1CSC(c2cccnc2)N1c1cccc(Cl)c1` (centres undefined) here?
Its Potency is inconclusive: 3.66 µM [inhibitor, single point].
